The results in this text go back to article PMC5385489.

The chains behind the UniProt entries cited, without tags or fusion partners. Residues count along the entry.
UniProt P20411, residues 19-86: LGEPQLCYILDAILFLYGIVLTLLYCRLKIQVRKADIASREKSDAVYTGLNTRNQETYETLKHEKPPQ

Where a chain is given by its changes, count along the chain named. These are yes or no findings as the source states them, for the method shown. In cells and extracts the contact can be indirect. Some results given as binding are weak or reduced against the parent protein; the word gives no strength. Sequences can lack the tags named with a protein.

Assay [1] concerns the target T1, myc-tagged rat Mincle R42I mutant (rat) (UniProt Q67EQ1).
T1 sequence: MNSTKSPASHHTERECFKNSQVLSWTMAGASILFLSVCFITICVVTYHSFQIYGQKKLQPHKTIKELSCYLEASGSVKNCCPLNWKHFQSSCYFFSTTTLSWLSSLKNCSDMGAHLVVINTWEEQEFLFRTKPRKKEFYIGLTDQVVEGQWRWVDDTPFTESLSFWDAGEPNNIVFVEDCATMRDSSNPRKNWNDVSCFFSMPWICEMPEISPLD
The assay is described as follows: co-IP; anti-myc immunoprecipitates from detergent-soluble lysates of RBL-2H3 cells stably expressing myc-tagged WT Mincle or the R42I mutant; immunoblotting with anti-FcεRIβ and anti-FcεRIγ. Background: Immunoblotting shows a protein as a band on a membrane.

For assay [2], the target named is T2, myc-tagged rat wild type (WT) Mincle (macrophage-inducible C-type lectin) (rat) (UniProt Q67EQ1).
T2 sequence: T1 sequence with I42R
Described as above.

On to “γ-subunit of high-affinity IgE receptor (FcεRIγ) (from UniProt P20411 19-86)”, for which the binding result in assay [1] is given as “no binding”; in assay [2], “binds”.
